Results published in patent US20260274983A1 (MODERNATX, published 2026).
Results are given in words; binding and its absence hold for the method and conditions named. Some entries that bind do so weakly or less than the wild type. Each block holds one binder with its values, some of them ahead of it.

Protein sequences, listed by entry. Tags and fused reporters are not part of them.
UniProt Q9NZD1: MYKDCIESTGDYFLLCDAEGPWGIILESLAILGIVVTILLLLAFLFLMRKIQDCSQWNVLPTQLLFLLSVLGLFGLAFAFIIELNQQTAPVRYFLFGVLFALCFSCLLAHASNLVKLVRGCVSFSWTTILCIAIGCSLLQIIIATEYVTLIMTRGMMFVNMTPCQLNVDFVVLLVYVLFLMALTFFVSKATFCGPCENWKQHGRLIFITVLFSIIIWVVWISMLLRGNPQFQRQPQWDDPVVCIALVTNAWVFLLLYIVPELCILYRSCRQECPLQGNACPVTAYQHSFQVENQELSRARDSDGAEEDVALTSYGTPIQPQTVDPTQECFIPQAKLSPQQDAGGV

What was measured:
human GPRC5D [1] = target: T1, human GPRC5D (human, UniProt Q9NZD1 1-345); test: FACS binding to CHO-huGPRC5D cells, VHH-His format
T1 construct: whole, on cells; Human is stated only for CHO-HuGPRC5D; also called HuGPRC5D; GPRC5D on CHO-HuGPRC5D cells

human GPRC5D [2] = target: T1, human GPRC5D; test: FACS binding to H929 cells, VHH-His format

binding (human GPRC5D [1]): binds
binding (human GPRC5D [2]): binds
B1: GPRC5D-VHH1-H7 (VHH)
VHH: QVQLVESGGGLVQPGGSLRLSCAASGRTVSSYAMGWFRQAPGKEREFVSAISWSGRSTYYADSMKGRFTISRDNAKNTLYLQMNSLRAEDTAVYYCATSRAVIPGRDWNYYEYWGQGTLVTVSS
notes: Humanized variant of GPRC5D-VHH1

binding (human GPRC5D [1]): binds
binding (human GPRC5D [2]): binds
B2: GPRC5D-VHH3-H9 (VHH)
VHH: QVQLVESGGGLVQPGGSLRLSCAASGIIFSASNLAWYRQAPGKQRELVAGVTGGGSINYADSVKGRFTISRDNAKNTIYLQMNSLRAEDTAVYYCNARRSYSHWGQGTLVTVSS
notes: Humanized variant of GPRC5D-VHH3
